Measurements as given in EP1947089A1, “A-polymorph of a substituted pyrazoline, its preparation and use as medicaments” (Laboratorios del Dr. Esteve S.A., priority 2007, dated 2008).
At least one structure is not confirmed: it was looked up by name or label, or the drawing left a doubt.

Key:
[1] = test system: cannabinoid 1 (CB1)-receptors; assay: In-vitro determination of affinity to CB1 receptors; type: binding; settings: general statement, no value given
[2] = test system: male, DIO, Sprague-Dawley rats; assay: Plasma insulin after chronic treatment of male DIO Sprague-Dawley rats; type: in vivo; settings: 10 mg/kg ip daily, compared to vehicle-treated control group, Figure 1
[3] = test system: male, DIO, Sprague-Dawley rats; assay: Oral glucose tolerance test in male DIO Sprague-Dawley rats; type: in vivo; settings: 10 mg/kg ip daily; Day-21, 2 g/kg glucose; versus vehicle; Figure 2
[4] = test system: male, DIO, Sprague-Dawley rats; assay: Plasma triglycerides and FFA in male DIO Sprague-Dawley rats; type: in vivo; settings: 10 mg/kg ip daily, chronic; compared to vehicle-treated control group; Figure 4
[5] = test system: male, DIO, Sprague-Dawley rats; assay: Body weight and fat depots analysis in male DIO Sprague-Dawley rats; type: in vivo; settings: 10 mg/kg ip daily
female, DIO Wistar rats [6] = assay: Plasma insulin assay in female DIO Wistar rats; type: in vivo; settings: 30 mg/kg po once daily for 28 days; compared to vehicle-treated control group; Figure 3
female, DIO Wistar rats [7] = assay: Body composition (carcass water, fat, protein, ash) of female DIO Wistar rats; type: in vivo; settings: 30 mg/kg po once daily for 28 days
[8] = test system: growing, male Wistar rats; assay: Plasma triglyceride and cholesterol in growing male Wistar rats; type: in vivo

For `O=C(NN1CCCCC1)C1=NN(c2ccc(Cl)cc2Cl)C(c2ccc(Cl)cc2)C1` (racemic) [COMPOUND C, N-piperidinyl-5-(4-chlorophenyl)-1-(2,4-dichlorophenyl)-4,5-dihydro-1H-pyrazole-3-carboxamide], the “affinity to cannabinoid receptors, particularly cannabinoid 1 (CB1)-receptors” value [1] was “high affinity”, the plasma insulin levels [2] was “statistically significantly (p < 0.001) reducing plasma insulin levels” and the “area under the curve (AUC) for the insulin excursion, oral glucose challenge” value [3] was “significantly lower”. The FFA levels [4] was “statistically significantly (p < 0.05), reducing”, the plasma trigyceride levels [4] was “statistically significantly (p < 0.05), reducing” and the bodyweight [5] was “decrease of bodyweight”. The “weights of the major visceral fat-pads, ie inguinal, epididymal, retroperitoneal and mesenterial” value ([5]; decreases statistically significant for all depots except the epididymal pads, Figure 11) was “large reductions”, the plasma insulin levels (female, DIO Wistar rats [6]) was “reducing plasma insulin levels” and the total ash content (female, DIO Wistar rats [7]) was “did not significantly alter”. The plasma triglyceride levels ([8]; 10 and 30 mg/kg po once daily for 14 days, dose-dependent, compared to vehicle-treated control group, Figure 6) was “reducing plasma triglyceride levels”, the plasma cholesterol levels ([8]; 10 and 30 mg/kg po once daily for 14 days, compared to vehicle-treated control group, Figure 7) was “dose-dependently reduced plasma cholesterol levels” and the “reduction of plasma triglyceride levels, significance” value ([8]; higher dose (30 mg/kg po) once daily for 14 days, Figure 6) was “statistically significantly (p < 0.05)”. The “reduction of plasma cholesterol levels, significance” value ([8]; higher dose (30 mg/kg po) once daily for 14 days, Figure 7) was “statistically significantly (p < 0.05)”.
